Source: article PMC9198048, “Ursodeoxycholic acid reduces antitumor immunosuppression by inducing CHIP-mediated TGF-β degradation” (Nature Communications, 2022)
Results are given in words; binding and its absence hold for the method and conditions named. For some assays here: In cells and extracts the contact can be indirect. Some results given as binding are weak or reduced against the parent protein; the word gives no strength.

Chains of the proteins cited; added tags and fusions are not shown. Lines headed by an entry give the natural chain unless they say otherwise; changes in a name come on top. A line that says so, or that is headed by a name, gives the form on record, which may keep a tag or linker. Residues count along the entry.
TGF-β1 (endogenous, naïve CD4+ T cells) (mouse (endogenous in naïve CD4+ T cells)) (P04202, residues 30-390): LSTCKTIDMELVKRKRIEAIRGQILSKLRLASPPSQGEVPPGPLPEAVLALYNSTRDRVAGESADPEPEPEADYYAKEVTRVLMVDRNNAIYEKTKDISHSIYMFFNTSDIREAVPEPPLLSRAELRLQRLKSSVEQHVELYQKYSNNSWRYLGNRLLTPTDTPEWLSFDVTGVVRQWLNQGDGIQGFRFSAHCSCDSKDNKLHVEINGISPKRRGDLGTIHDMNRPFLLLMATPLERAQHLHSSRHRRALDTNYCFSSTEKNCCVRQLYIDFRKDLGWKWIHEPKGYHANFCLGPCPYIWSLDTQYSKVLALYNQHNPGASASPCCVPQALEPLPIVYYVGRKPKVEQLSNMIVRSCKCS
Flag-TGF-β1T282A (P04202, form named): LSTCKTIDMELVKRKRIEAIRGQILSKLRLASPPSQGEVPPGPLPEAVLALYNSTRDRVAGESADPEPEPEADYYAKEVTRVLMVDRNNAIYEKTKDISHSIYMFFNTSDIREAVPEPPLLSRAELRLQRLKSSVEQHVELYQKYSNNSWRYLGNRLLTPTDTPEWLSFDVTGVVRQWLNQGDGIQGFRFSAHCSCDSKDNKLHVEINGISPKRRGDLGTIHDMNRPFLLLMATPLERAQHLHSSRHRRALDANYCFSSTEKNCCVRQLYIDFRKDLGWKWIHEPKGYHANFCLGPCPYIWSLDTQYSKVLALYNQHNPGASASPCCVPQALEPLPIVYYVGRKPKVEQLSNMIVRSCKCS
UniProt Q9WUD1: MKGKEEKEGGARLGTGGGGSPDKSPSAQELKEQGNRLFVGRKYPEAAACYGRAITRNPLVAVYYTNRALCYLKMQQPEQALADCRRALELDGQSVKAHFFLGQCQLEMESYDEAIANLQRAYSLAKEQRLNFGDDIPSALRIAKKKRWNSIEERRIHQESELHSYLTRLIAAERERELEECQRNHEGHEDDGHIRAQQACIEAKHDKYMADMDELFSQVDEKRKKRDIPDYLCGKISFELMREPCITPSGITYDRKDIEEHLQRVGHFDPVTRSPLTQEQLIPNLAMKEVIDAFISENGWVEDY

Experiments:
[1] = biological target: TGF-β1 (endogenous, naïve CD4+ T cells) (mouse (endogenous in naïve CD4+ T cells)) (UniProt P04202); assay: co-IP; endogenous proteins in naïve CD4+ T cells stimulated with anti-CD3 and anti-CD28 for 24 h (also with 50 μM UDCA, with or without 2 μM H89); IP with anti-TGF-β1 or IgG, immunoblot
His-CHIP = His-CHIP (UniProt Q9WUD1); assay: pull-down; about 1 µg His-CHIP bound to His beads mixed with 1 µg Flag-TGF-β1WT or Flag-TGF-β1T282A, 4 °C overnight, washed three times with cell lysis buffer, immunoblot; both purified

binding [1]	binding (His-CHIP)	Substance
binds	–	CHIP (endogenous, naïve CD4+ T cells) (from UniProt Q9WUD1 1-304) (enzyme)
–	binds weakly	Flag-TGF-β1T282A (from UniProt P04202 30-390)
